{"source": "patent US7402424B2", "about": "“Spectroscopic pH measurement at high-temperature and/or high-pressure” (Schlumberger Technology Corporation, priority 2006, dated 2008)", "experiment": "Molar absorptivity ε of acid and base forms of reagents at 570 nm and 445 nm", "assay_type": "physicochemical", "note": "At least one structure is not confirmed: it was looked up by name or label, or the drawing left a doubt."}
{"compound": "O=S1(=O)OC(c2ccc(O)cc2)(c2ccc(O)cc2)c2ccccc21", "note": "[Phenol Red]", "values": [{"measurement": "ε at 445 nm (λ1), Acid", "setting": "acid form, 445 nm, in M-1·cm-1 (unit assumed)", "value": 17916}, {"measurement": "ε at 570 nm (λ2), Acid", "setting": "acid form, 570 nm", "value": 108, "unit": "M⁻¹ cm⁻¹"}, {"measurement": "ε at 445 nm (λ1), Base", "setting": "base form (sodium salt of the reagent), 445 nm, in M-1·cm-1 (unit assumed)", "value": 3352}, {"measurement": "ε at 570 nm (λ2), Base", "setting": "base form (sodium salt of the reagent), 570 nm, in M-1·cm-1 (unit assumed)", "value": 37975}]}
